For at least one entry, the source does not settle the construct or the ends of the probe. Weaker means in comparison with the reference protein, sequence or condition of that experiment.
Test system: RNA polymerase holoenzyme (beta, beta', alpha, omega, sigma) (Escherichia coli)
Experiment: EMSA
Details: 500 uM ppGpp, 50 uM ATP, 10 mM Mg acetate, heparin stop, 40 mM Hepes-KOH pH 8, 50 mM KCl, 0.5 mM DTT, 0.005% NP40, 50 uM ATP, 30 C, ~0.3 pmol DNA and 7 pmol RNAP in 200 uL, time course, native protein, label: 5'-32P on the Gen406 strand, probe letters rebuilt from the primers and the genome

“GTGCTGCGAAATCATCGGTGTAAATAGGGCTATATGCCGCGTCTTTTCTGGCTAATTTTATGAAAAGATATTTATTGGCGGCACAAAATAAAGAACAATTTTGAATTCCTTACATTCCTGGCTATTGCACAACTGAATTTAAGGCTCTATTATTACCTCAACAAACCACCCCAATATAAGTTTGAGATTACTACAATGAGCGAAGCACTTAAAATTCTGAA (double strand) [hns promoter fragment, 221 bp (-159 to +62)]”: binds more weakly.

From paper PMC7601328
